Article doi:10.1101/2025.04.19.649674
No constants are given. Whether binding was seen depends on the method and setting. Binding seen in cells or lysates may run through a third protein. Some results given as binding are weak or reduced against the parent protein; the word gives no strength. Values belong to the substance of their own block, whether it stands above or below them.

Amino acid sequences for entries named in this document (tags omitted).
UniProt O43353: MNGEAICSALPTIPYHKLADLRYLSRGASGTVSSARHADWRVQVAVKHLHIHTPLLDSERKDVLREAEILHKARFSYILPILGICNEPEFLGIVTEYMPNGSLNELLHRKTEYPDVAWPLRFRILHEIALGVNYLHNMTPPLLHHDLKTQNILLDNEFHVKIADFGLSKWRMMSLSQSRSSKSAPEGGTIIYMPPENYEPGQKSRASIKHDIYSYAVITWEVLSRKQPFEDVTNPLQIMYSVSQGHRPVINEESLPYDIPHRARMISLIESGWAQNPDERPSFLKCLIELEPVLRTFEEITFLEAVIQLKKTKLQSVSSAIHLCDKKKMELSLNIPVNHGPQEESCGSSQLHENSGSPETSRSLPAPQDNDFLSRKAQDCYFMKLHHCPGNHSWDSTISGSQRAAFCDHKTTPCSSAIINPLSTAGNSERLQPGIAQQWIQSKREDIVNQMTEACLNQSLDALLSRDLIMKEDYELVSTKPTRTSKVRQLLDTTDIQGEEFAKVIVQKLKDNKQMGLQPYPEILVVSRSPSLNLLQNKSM
UniProt Q8C147: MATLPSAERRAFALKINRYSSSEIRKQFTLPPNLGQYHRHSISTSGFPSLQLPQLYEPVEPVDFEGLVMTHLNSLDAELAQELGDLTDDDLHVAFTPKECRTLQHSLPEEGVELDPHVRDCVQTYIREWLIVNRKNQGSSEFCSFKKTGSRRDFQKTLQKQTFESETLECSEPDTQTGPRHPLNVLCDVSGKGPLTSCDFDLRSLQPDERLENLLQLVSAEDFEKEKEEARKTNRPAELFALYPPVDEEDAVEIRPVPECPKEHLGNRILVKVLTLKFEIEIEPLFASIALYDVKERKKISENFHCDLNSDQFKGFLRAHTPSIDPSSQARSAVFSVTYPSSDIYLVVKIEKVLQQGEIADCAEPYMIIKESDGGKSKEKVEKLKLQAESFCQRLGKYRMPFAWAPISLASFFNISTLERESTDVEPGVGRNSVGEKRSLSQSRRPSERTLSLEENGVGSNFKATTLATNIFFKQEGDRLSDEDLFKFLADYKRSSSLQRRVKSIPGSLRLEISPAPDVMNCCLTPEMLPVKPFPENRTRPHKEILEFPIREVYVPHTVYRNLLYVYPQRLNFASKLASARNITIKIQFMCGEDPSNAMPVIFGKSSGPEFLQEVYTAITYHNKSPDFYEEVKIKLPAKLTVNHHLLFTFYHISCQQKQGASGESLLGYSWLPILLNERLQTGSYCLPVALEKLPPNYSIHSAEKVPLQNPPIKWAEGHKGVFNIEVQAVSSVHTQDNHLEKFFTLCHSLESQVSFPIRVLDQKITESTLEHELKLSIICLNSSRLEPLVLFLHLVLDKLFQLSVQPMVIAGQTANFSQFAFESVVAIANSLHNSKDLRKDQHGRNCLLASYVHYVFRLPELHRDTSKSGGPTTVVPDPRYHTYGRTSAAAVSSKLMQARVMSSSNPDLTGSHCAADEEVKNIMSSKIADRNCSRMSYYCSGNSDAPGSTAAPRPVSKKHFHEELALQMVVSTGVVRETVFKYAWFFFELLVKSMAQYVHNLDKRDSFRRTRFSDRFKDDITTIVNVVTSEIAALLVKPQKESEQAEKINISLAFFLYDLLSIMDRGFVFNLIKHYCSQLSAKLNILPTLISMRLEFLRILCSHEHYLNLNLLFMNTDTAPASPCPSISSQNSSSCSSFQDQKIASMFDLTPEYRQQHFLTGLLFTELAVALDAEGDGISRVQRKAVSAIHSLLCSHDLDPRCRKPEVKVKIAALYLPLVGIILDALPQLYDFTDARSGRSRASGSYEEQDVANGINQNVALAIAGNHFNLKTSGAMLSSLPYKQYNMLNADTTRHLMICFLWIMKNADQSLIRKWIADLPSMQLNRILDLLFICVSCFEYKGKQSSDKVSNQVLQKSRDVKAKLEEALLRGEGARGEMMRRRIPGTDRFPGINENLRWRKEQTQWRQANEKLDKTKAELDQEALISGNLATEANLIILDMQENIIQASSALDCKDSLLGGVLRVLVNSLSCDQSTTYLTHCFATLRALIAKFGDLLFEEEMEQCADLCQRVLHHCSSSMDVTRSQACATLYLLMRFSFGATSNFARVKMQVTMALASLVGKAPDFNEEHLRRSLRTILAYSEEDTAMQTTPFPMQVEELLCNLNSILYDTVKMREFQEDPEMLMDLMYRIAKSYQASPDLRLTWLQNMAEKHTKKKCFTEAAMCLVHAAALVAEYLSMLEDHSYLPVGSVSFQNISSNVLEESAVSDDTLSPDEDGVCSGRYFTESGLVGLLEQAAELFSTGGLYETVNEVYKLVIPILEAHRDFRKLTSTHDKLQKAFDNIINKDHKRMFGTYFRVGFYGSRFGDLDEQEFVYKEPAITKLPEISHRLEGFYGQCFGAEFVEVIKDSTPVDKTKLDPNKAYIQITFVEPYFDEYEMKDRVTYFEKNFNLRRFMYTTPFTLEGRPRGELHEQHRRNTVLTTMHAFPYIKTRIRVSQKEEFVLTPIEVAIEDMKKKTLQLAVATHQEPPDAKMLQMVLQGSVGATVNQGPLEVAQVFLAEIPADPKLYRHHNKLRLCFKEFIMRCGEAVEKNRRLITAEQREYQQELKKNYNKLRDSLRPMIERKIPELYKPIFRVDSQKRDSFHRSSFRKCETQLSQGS
UniProt Q8NF50: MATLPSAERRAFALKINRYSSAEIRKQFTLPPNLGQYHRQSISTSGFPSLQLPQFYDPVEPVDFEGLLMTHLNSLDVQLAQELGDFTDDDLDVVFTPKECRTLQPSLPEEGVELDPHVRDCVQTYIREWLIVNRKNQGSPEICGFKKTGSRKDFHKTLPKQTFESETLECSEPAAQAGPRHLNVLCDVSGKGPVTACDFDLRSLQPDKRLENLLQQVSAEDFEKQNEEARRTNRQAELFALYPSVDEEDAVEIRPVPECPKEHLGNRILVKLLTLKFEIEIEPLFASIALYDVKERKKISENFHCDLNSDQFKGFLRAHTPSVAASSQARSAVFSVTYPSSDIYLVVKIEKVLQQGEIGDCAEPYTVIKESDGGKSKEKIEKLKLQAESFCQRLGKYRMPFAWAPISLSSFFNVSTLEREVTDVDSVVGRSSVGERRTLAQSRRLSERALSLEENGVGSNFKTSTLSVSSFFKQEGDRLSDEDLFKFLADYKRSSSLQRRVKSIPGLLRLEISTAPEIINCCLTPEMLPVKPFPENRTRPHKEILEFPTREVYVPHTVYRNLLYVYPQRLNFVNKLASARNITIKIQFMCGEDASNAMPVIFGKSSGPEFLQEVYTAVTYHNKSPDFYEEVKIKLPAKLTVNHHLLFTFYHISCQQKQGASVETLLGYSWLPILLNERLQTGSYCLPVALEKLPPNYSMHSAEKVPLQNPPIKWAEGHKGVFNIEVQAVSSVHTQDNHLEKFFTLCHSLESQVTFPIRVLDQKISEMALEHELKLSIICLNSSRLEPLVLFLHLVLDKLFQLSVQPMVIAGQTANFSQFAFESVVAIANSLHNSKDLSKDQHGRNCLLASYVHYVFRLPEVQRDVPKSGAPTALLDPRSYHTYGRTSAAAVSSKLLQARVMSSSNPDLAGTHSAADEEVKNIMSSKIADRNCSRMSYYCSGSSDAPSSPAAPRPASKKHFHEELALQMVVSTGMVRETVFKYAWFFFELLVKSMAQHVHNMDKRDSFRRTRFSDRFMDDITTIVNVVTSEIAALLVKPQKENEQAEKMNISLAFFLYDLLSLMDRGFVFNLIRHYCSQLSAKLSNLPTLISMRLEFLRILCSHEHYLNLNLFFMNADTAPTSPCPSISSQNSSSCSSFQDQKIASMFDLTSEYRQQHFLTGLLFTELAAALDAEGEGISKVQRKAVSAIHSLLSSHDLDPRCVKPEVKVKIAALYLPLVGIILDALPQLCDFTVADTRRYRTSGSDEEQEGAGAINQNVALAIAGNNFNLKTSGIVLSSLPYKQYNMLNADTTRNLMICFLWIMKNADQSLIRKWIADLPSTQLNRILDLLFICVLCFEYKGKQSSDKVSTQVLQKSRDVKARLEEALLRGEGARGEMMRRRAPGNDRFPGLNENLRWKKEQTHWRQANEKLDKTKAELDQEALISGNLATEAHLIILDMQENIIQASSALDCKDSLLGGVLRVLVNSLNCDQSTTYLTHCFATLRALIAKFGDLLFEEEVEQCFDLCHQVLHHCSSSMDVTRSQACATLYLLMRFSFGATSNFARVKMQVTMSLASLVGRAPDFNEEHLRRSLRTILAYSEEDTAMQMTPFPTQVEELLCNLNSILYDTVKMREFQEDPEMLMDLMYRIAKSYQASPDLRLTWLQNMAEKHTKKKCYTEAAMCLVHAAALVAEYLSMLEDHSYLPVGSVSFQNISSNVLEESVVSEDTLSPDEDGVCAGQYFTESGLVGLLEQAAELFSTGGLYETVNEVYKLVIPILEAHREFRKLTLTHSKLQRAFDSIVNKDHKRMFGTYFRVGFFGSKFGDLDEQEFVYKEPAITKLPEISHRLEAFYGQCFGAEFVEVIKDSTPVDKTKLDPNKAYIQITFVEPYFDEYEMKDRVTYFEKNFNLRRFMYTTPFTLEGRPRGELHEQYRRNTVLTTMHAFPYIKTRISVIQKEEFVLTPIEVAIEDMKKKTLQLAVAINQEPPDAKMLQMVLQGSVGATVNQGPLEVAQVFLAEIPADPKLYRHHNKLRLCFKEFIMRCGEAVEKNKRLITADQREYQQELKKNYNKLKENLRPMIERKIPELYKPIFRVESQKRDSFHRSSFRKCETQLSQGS
UniProt P60766: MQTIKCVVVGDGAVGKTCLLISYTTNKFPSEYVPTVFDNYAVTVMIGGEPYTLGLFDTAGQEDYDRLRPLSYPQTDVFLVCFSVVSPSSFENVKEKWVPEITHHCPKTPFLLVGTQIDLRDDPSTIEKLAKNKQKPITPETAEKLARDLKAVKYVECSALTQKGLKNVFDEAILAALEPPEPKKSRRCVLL
UniProt P60953: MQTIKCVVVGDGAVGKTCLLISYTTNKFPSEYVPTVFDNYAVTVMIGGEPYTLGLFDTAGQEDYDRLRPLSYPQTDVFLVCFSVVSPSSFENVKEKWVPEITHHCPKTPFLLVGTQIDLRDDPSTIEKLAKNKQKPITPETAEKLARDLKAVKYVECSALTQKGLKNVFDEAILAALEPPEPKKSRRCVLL

Key:
Experiment in all cases: co-IP
[1] = biological target: phosphorylated RIP2 (Ser 176), receptor-interacting protein 2 (human (endogenous in human platelets)) (UniProt O43353)
[2] = biological target: DOCK8 (mouse) (mouse (endogenous in mouse platelets)) (UniProt Q8C147)
[3] = biological target: DOCK8 (dedicator of cytogenesis protein 8) (human (endogenous in human platelets)) (UniProt Q8NF50)

- binding [1]: binds
Substance: DOCK8 (dedicator of cytogenesis protein 8) (from UniProt Q8NF50 1-2099)

- binding [2]: binds
Substance: Cdc42 (mouse) (from UniProt P60766 1-191)

- binding [3]: binds
Substance: Cdc42 (cell division cycle 42) (from UniProt P60953 1-191)
